Results as given in patent US20180228799A1, “Treatment for Neurological and Mental Disorders” (PSYCHOGENICS, INC., priority 2008, published 2018).
At least one structure is not confirmed: it was looked up by name or label, or the drawing left a doubt.

Tested on: Male Wistar rats
Assay: Novel Object Recognition Test (NOR)
Format: in vivo
Conditions: positive control, 3 mg/kg, FIG. 3
Description: In addition to working memory deficits, the initiative, “Measurement and Treatment Research to Improve Cognition in Schizophrenia” (MATRICS) has identified other domains of learning and memory in which schizophrenia patients show impaired visual learning and memory. There are several visual learning and memory tasks appropriate for study in rodents (Powell, S. B. and M. A. Geyer, Overview of animal models of schizophrenia. Curr Protoc Neurosci, 2007. Chapter 9: p. Unit 9 24). […]
Male Wistar rats were assessed for cognitive ability in a test apparatus comprising an open-field arena placed in a sound-attenuated room under dimmed lighting. […] All tests were video scored by an observer blind to treatment. […] Each rat was placed in the arena facing the same direction at the same position, and the time spent actively exploring the objects during a 10-minute test period was recorded. […] After 24 hours, each rat was placed again in the test arena for 10 minutes in the presence of one of the familiar objects and a novel object, and the time spent exploring both objects was recorded. […] The percent time spent exploring the novel object was recorded.

`COc1ccc2c3c1O[C@H]1C[C@@H](O)C=C[C@@]31CCN(C)C2` [galantamine, reference compound] was tested, and the “NOR memory relative to saline” value was “significantly increased NOR memory”.
